Reference: PubChem BioAssay AID588496 (NMMLSC, 2011)
This is one part of the list. Shown are side measurements of this screen, not its main read-out; they come without a call.

Assay: bead-bound aptamer signal quenching artefacts – biochemical, powder set 1, flow cytometry, artefact control for GRK2 aptamer binding project, dose response (AID 588496)
Conditions: Bead-bound FAM RNA aptamer fluorescence quenching, fluorescence change max-min concentration, stronger effect = higher value

Structure (SMILES)	MCF span
Cc1ccccc1NC(=O)CCS(=O)(=O)c1ccc(Br)s1	1.3
O=C(O)Cc1ccc(-n2cccc2)cc1	0.6
Cc1cc(=O)[nH]c(SCC(=O)NCc2ccco2)n1	0.5
C#CCSc1nc2sc3c(c2c(=O)n1C)CCC3	1.2
CCN(CC)c1ccc(NC(=O)CCS(=O)(=O)c2ccc(Br)cc2)c(C)c1	-2.7
O=C(CCS(=O)(=O)c1ccc(Br)s1)Nc1ccccc1Br	1.2
CCc1ccccc1NC(=O)CCS(=O)(=O)c1ccc(Br)cc1	-0.6
CCOc1ccc(CCNC(=O)CCS(=O)(=O)c2ccc(Br)cc2)cc1OCC	4.6
Cc1ccc(CCNC(=O)CCS(=O)(=O)c2ccc(Br)cc2)cc1	10.6
CC(CS(=O)(=O)c1ccc2c(c1)NC(=O)CS2)C(=O)NCc1ccccc1Cl (stereo unspecified)	0.5
Cc1ccccc1NC(=O)CCS(=O)(=O)c1ccc(Br)cc1	7.3
O=C(CCS(=O)(=O)c1ccc(Br)cc1)Nc1cc(F)ccc1F	-2
COc1ccc([N+](=O)[O-])cc1NC(=O)CCS(=O)(=O)c1ccc(Br)cc1	-1.8
Cc1cccc(CCNC(=O)CCS(=O)(=O)c2ccc(Br)cc2)c1	-1.8
Cc1cc2ccccc2n1CCNC(=O)c1cccs1	0.9
COC(=O)c1ccccc1NC(=O)CCS(=O)(=O)c1ccc(Br)s1	-0.5

Structure (SMILES)	MCF span
Cc1cccc(N2CCN(C(=O)CCS(=O)(=O)c3ccc(Br)cc3)CC2C)c1 (stereo unspecified)	-1.8
CCOc1ccccc1NC(=O)CCS(=O)(=O)c1ccc(Br)cc1	1.4
COc1ccc(NC(=O)CCS(=O)(=O)c2ccc(Br)s2)cc1	-1.5
COc1ccc(CCNC(=O)CCS(=O)(=O)c2ccc(Br)cc2)cc1OC	-1.8
COC(=O)c1ccc(NC(=O)CCS(=O)(=O)c2ccc(Br)cc2)cc1	-2.5
O=C(O)C1CC(=O)N(c2ccc3c(c2)OCCO3)C1 (stereo unspecified)	-0.4
COc1ccc(CNC(=O)CCS(=O)(=O)c2ccc(Br)cc2)cc1	4.7
O=C(CCS(=O)(=O)c1ccc(Br)cc1)NCc1cccs1	0
O=C(CN1CCc2ccccc21)NC(=O)NCc1ccccc1	-1.4
CCOc1ccc(NC(=O)CCS(=O)(=O)c2ccc(Br)cc2)cc1	3.1
CC(=O)N1CCN(Cc2nc3cc(Cl)ccc3c(=O)[nH]2)CC1	0.9
O=C(CSc1nc2ccccc2c(=O)n1-c1ccccc1)NC(=O)CN1CCCC1=O	-1.6
NS(=O)(=O)c1ccc(CCNC(=O)CCS(=O)(=O)c2ccc(Br)cc2)cc1	-4.2
O=C(CCS(=O)(=O)c1ccc(Br)cc1)Nc1ccc(Br)cc1F	4.2
Cc1cc2ccccc2n1CCNC(=O)C(C)Oc1ccccc1 (stereo unspecified)	-2.5

Five entries already listed, sorted by heavy-atom count, ascending.
Structure (SMILES)	MCF span
O=C(O)Cc1ccc(-n2cccc2)cc1	0.6
Cc1cccc(CCNC(=O)CCS(=O)(=O)c2ccc(Br)cc2)c1	-1.8
COc1ccc([N+](=O)[O-])cc1NC(=O)CCS(=O)(=O)c1ccc(Br)cc1	-1.8
NS(=O)(=O)c1ccc(CCNC(=O)CCS(=O)(=O)c2ccc(Br)cc2)cc1	-4.2
O=C(CSc1nc2ccccc2c(=O)n1-c1ccccc1)NC(=O)CN1CCCC1=O	-1.6
